Measured values published in PubChem BioAssay AID540256 (National Center for Advancing Translational Sciences (NCATS), 2011).
The whole screen tested about 300,000 compounds, of which about 3,700 (1.2%) were called active. The inconclusive results got no clear call from the source; some entries with a clear call stand among them for comparison. Calls come from the whole dose curve; tested in HEK293 cells. Potencies of inconclusive entries are doubtful fits and often do not repeat.

Test: qHTS for Inhibitors of binding or entry into cells for Lassa Virus; note: nearly all actives have a fitted effect of over 50% in size
Conditions: Lassa virus pseudotype entry inhibition, cell reporter; activity change, negative = inhibition: at 37.9 µM (top of the series) unless noted
% is set by controls: 0 for no effect and ±100 for the full control effect; potency is the fitted concentration of half-maximal effect.

| Compound | activity change, negative = inhibition | Potency |
| --- | --- | --- |
| Cc1cccc(C)c1Nc1nnc(SCC(=O)c2ccc3c(c2)NC(=O)CO3)s1 | inactive: 13.8% | – |
| CC1(C)Cc2c(sc3c2c(=N)n(Cc2ccco2)c(=O)n3Cc2ccc(Cl)cc2)CO1 | – | inconclusive: 10 µM [inhibitor, partial curve] |
| NS(=O)(=O)c1ccc(CNC(=O)CNC(=O)c2ccc(Br)o2)cc1 | – | inconclusive: 4.47 µM [activator, full curve, poor fit] |
| CCOc1ccc(CNCc2c(C(=O)O)n(Cc3ccc(C)cc3)c3cc(C)ccc23)cc1 | – | inconclusive: 11.2 µM [inhibitor, partial curve, poor fit] |
| CC(=O)Nc1ccc(-c2cn3ccsc3n2)cc1 | – | inconclusive: 7.08 µM [activator, partial curve, poor fit] |
| COc1ccc(C2C(=O)N(CCc3ccccc3)CC(=O)N2C2CCCCC2)cc1 (stereo not given) | – | inconclusive: 0.103 µM [activator, full curve, poor fit] |
| COc1ccc(CCNCc2ccc(OC)c(OC)c2OC)cc1 | inactive: 9.27% | – |
| COc1ccc(C(=O)N(C)CCCC2CCCC2)cc1OC1CCN(C(C)=O)CC1 | – | inconclusive: 6.31 µM [inhibitor, partial curve, poor fit] |
| Cc1ccc(-c2nc(CCN3C(=O)c4ccccc4C3=O)cs2)cc1 | – | inconclusive: 20.6 µM [inhibitor, single point] |
| CCN(C(=O)COC(=O)c1cc(-c2ccccc2)nc2c1c(C)nn2-c1ccc(C)cc1)C1CCS(=O)(=O)C1 (stereo not given) | – | inconclusive: 7.94 µM [inhibitor, partial curve, poor fit] |
| CCOC(=O)CN(C#N)c1nc(C)cc(C)n1 | – | inconclusive: 29.1 µM [activator, single point] |
| COc1cccc(CN(C)C(=O)c2ccccc2SCC(=O)N2CCCC2)c1 | – | inconclusive: 0.891 µM [activator, full curve, poor fit] |
| CCCOc1ccc2oc(=O)c3c(c2c1)CCCN3C(=O)CN1CCc2ccccc2C1 | – | inconclusive: 14.1 µM [inhibitor, partial curve, poor fit] |
| COc1ccc(OC)c(NS(=O)(=O)c2ccc(NC(C)=O)cc2)c1 | – | inconclusive: 0.82 µM [inhibitor, partial curve, poor fit] |
| Cc1cc(Br)c(S(=O)(=O)NCc2ccncc2)cc1C | – | inconclusive: 15.8 µM [inhibitor, partial curve] |
| COc1cc(-c2nc3ccc(N4CCN(C)CC4)cc3[nH]2)cc(OC)c1OC | – | inconclusive: 35.5 µM [inhibitor, partial curve, poor fit] |
| C=CCN1C(=O)C(Cc2ccccc2)S/C1=N/N=C/c1cccs1 (stereo not given) | – | inconclusive: 35.5 µM [inhibitor, single point] |
| O=S(=O)(c1ccc(NC(=S)N/N=C/c2ccc(Oc3ccccc3)cc2)cc1)N1CCOCC1 | inactive: -2.16% [at 46.1 µM] | – |
| COc1ccc(N2C(=O)c3ccc(C(=O)OC(C)C)cc3C2=O)cc1 | – | inconclusive: 1.41 µM [activator, partial curve] |
| COc1ccc(CN(CC(=O)NCc2ccco2)C(=O)CNS(=O)(=O)c2ccc(C)cc2)cc1 | – | inconclusive: 35.5 µM [inhibitor, single point] |

| Compound | activity change, negative = inhibition | Potency |
| --- | --- | --- |
| CNC(=O)c1cc(Nc2nnc(-c3ccc(C)c(S(N)(=O)=O)c3)c3ccccc23)ccc1OC | – | inconclusive: 6.31 µM [inhibitor, single point] |
| Cc1nc(-c2ccccn2)nc(N2CCOCC2)c1Cl | – | inconclusive: 20 µM [inhibitor, partial curve, poor fit] |
| CCC(C)NC(=O)c1ccc(NS(=O)(=O)c2ccc3[nH]c(=O)[nH]c3c2)cc1 (stereo not given) | inactive: -10.8% | – |
| COc1ccc(Cc2noc(CN3CCN(c4ccc(Cl)cn4)CC3)n2)cc1OC | – | inconclusive: 7.08 µM [inhibitor, full curve] |
| COc1ccc(OC)c(NC(=O)COc2ccc(S(=O)(=O)N3CCCC3)cc2)c1 | – | inconclusive: 28.2 µM [inhibitor, partial curve, poor fit] |
| Cc1ccc(NC2c3ncccc3C(=O)N2C2CCCCC2)cc1 (stereo not given) | – | inconclusive: 20.6 µM [activator, single point] |
| O=C1C2C3C=CC(CC3)C2C(=O)N1/N=C/c1ccc(O)c(O)c1 (stereo not given) | – | inconclusive: 0.103 µM [inhibitor, full curve, poor fit] |
| COCCN1C(=NCCc2cccnc2)NC(c2ccccc2)C(C(=O)OC)=C1C (stereo not given) | inactive: -21.2% [at 14.3 µM] | – |
| COc1ccc(S(=O)(=O)NCC(c2ccco2)S(=O)(=O)c2cccs2)cc1C (stereo not given) | – | inconclusive: 7.94 µM [inhibitor, partial curve, poor fit] |
| O=Cc1ccc(Sc2nnc(-c3ccccc3)o2)c([N+](=O)[O-])c1 | inactive: -14.4% | – |
| Cn1c(=O)n(C)c2cc(S(=O)(=O)N3CCOCC3)ccc21 | – | inconclusive: 0.0041 µM [activator, full curve, poor fit] |
| Cc1sc2nc(C3CC3)nc(N3CCN(C(=O)c4ccc(F)cc4)CC3)c2c1C | – | inconclusive: 14.1 µM [inhibitor, partial curve, poor fit] |
| FC(F)(F)c1cc(Cl)c2nnc(C(F)(F)Cl)n2c1 | inactive: 3.44% | – |
| COc1cccc2cc(C(=O)OCC(=O)NC3CCCC(C)C3C)c(=O)oc12 (stereo not given) | inactive: 12.5% [at 46.1 µM] | – |
| COc1ccc(-c2nc3scc(-c4ccc(OC)c(OC)c4)c3c(=O)o2)cc1 | – | inconclusive: 20.6 µM [inhibitor, single point] |
| COc1ccc(C(=O)N/N=C/c2ccccc2OC(=O)c2ccccc2)cc1 | – | inconclusive: 17.8 µM [inhibitor, single point] |
| CCOc1cc(N2CCOCC2)c(OCC)cc1NC(=O)Cc1cccc(OC)c1 | – | inconclusive: 35.5 µM [inhibitor, single point] |
| Cc1cc(Cl)ccc1OCCCC(=O)N1CCCCC1 | inactive: 8.28% | – |
| CS(=O)(=O)N1CCc2cc(S(=O)(=O)NCCNS(=O)(=O)c3ccc4c(c3)CCN4S(C)(=O)=O)ccc21 | inactive: -18.2% | – |
| CCOc1ccccc1C(=O)Nc1c(C(=O)Nc2ccc(F)cc2)oc2ccccc12 | – | inconclusive: 25.1 µM [inhibitor, single point] |

Compounds listed so far that contain an NH in an aromatic ring:

| Compound | activity change, negative = inhibition | Potency |
| --- | --- | --- |
| COc1cc(-c2nc3ccc(N4CCN(C)CC4)cc3[nH]2)cc(OC)c1OC | – | inconclusive: 35.5 µM [inhibitor, partial curve, poor fit] |
| CCC(C)NC(=O)c1ccc(NS(=O)(=O)c2ccc3[nH]c(=O)[nH]c3c2)cc1 (stereo not given) | inactive: -10.8% | – |
